The target of assay [1] is T1, Checkpoint kinase Chk1 (human (endogenous in HCT116)) (UniProt O14757).
T1 sequence: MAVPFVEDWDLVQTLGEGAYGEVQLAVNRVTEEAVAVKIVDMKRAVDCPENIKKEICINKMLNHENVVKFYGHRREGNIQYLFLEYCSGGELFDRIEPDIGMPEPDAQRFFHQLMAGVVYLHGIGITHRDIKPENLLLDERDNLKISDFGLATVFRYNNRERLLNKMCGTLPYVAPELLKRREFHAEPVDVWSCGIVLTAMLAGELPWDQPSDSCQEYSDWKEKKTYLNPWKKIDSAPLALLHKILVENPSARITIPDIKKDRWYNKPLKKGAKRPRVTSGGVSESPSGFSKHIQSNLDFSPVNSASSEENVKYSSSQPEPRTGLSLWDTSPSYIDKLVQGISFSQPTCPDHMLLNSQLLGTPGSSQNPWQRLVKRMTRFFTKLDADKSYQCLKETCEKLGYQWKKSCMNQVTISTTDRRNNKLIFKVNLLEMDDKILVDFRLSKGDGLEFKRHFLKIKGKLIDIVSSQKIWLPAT
The assay is described as follows: co-IP; mitochondrial extracts (± UV); immunoprecipitation with anti-Chk1 ab, immunoblot for BAK, PUMA, Bcl-xL. On the technique in general: In western blotting, separated proteins are transferred to a membrane and probed.

Assay [2] has as its target T2, BAK (wild type), reconstituted in HCT116 cells lacking both BAK and BAX, Q16611.
T2 chain: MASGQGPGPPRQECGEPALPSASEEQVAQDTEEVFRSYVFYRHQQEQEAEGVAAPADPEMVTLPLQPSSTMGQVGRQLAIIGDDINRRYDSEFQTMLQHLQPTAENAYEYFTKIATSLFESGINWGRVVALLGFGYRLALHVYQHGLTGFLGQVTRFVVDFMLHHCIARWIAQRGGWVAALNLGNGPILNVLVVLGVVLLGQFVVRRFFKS
The assay is described as follows: co-IP; mitochondria of HCT116-WT BAK cells (with or without Chk1 inhibitor, ± UV) solubilised in 1% CHAPS buffer; immunoprecipitation with anti-BAK ab (Y164), immunoblot for Bcl-xL, PUMA, Bim. Particulars: remark: other sources report otherwise.

For assay [3], the target named is T2, BAK (wild type), reconstituted in …. Put plainly: cross-linking; same mitochondrial preparations crosslinked with 10 mM BMOE, which detects only monomer and dimer forms of BAK; BAK detected by western blot. The following applies: remark: other sources report otherwise.
Assay [4] shares this target. Put plainly: cross-linking; 70-100 ug of mitochondria isolated from cells (with or without Chk1 inhibitor SB-218078 for 30 min; alone, UV or etoposide for 8 hrs) crosslinked with 10 mM BMH; BAK detected by western blot. Particulars: remark: other sources report otherwise.
In another assay the target is BAK S117A mutant (UniProt Q16611). The description is as above.
The next assay concerns the target BAK Y108A mutant (UniProt Q16611). The assay is described as above.

Residue numbers refer to the chain shown, from its start. Names and notes keep the numbering of the source. These are yes or no findings as the source states them, for the method shown. In cells and extracts the contact can be indirect. Some results given as binding are weak or reduced against the parent protein; the word gives no strength.

B1: PUMA (protein, UniProt Q9BXH1 1-193)
chain: MARARQEGSSPEPVEGLARDGPRPFPLGRLVPSAVSCGLCEPGLAAAPAAPTLLPAAYLCAPTAPPAVTAALGGSRWPGGPRSRPRGPRPDGPQPSLSLAEQHLESPVPSAPGALAGGPTQAAPGVRGEEEQWAREIGAQLRRMADDLNAQYERRRQEEQQRHRPSPWRVLYNLIMGLLPLPRGHRAPEMEPN
Turning to B1, the binding entry in assay [1] was “binds”.

B2: PUMA, Q9BXH1 1-193 (protein)
chain: B1 chain
Turning to B2, in assay [2], the binding entry is on record as “binds”.

B3: BAK (wild type), reconstituted in HCT116 cells lacking both BAK and BAX, Q16611 1-211 (protein)
chain: T2 chain
Take B3: the binding entry in assay [3] and in assay [4] was “binds” each time.

B4: BAK S117A mutant (protein, UniProt Q16611 1-211)
chain: T2 chain with S117A
For the molecule B4, the binding result in the assay with BAK S117A mutant is “binds”.

B5: BAK (wild type), reconstituted in HCT116 cells lacking both BAK and BAX (protein, UniProt Q16611 1-211)
chain: T2 chain
B5: the binding entry in assay [1] is listed as “binds”.

B6: BAK Y108A mutant (protein, UniProt Q16611 1-211)
chain: T2 chain with Y108A
On to B6, for which the binding result with BAK Y108A mutant is given as “binds”.

The values above are taken from article PMC4422300.
